Results published in US20230331823A1.
These are yes or no findings as the source states them, for the method shown. Binding can be weak; no strength is given.

Biological target: HKU9 CoV stabilized S trimer ([change]) (HKU9 CoV)
Experiment: BLI, trimer at 30 µg/ml

B1: MoB3-3D8 nanobody (ShAb02 single domain VNAR) (VNAR)
VNAR: ARVDQTPQTITKETGESLTINCVLRDSNCALASTDWYRKKSGSTNEESISKGGRYVETVNSGSKSFSLRINDLTVEDSGTYRCNAWDSWETRQLKCDYDVYGGGTVVTVN
In the case of B1, the binding is reported as “binds”.
